Results reported in patent publication US9888688B2, “Tetrazolinone compounds and applications thereof” (Sumitomo Chemical Company, Limited, priority 2013, dated 2018).
Where two headings read alike, the source gives them in different places. Some of these results come from one statement about several compounds together.

System: cucumber powdery mildew fungus (Sphaerotheca fuliginea, a QoI-resistant strain, cytochrome b position 143 glycine to alanine)
Format: in vivo
Conditions: cucumber SAGAMI HANJIRO, 8 days
[1] = 50 ppm foliar spray, inoculated after 1 day

For `Cc1cc(-c2cnccn2)ccc1OCc1c(C)cccc1-n1nnn(C)c1=O` [Present Compound 99], the “area of lesion spots relative to that on an untreated plant” value (shortened to “area of lesion spots relative to that”) (200 ppm foliar spray) was at most 30% and the “area of lesion spots relative to that” value (500 ppm foliar spray) was at most 30%.

For `Cc1ccnc(-c2cc(C)c(OCc3c(C)cccc3-n3nnn(C)c3=O)cc2C)n1` [Present Compound 172], the “area of lesion spots relative to that” value (200 ppm foliar spray) was at most 30% and the “area of lesion spots relative to that” value (500 ppm foliar spray) was at most 30%.

For `Cc1cc(-c2ccc(C#N)cn2)c(C)cc1OCc1c(C)cccc1-n1nnn(C)c1=O` [Present Compound 174], the “area of lesion spots relative to that” value (200 ppm foliar spray) was at most 30% and the “area of lesion spots relative to that” value (500 ppm foliar spray) was at most 30%.

For `CCOc1cccc(-n2nnn(C)c2=O)c1COc1ccc(-c2cccc(C)n2)cc1C` [Present Compound 53], the “area of lesion spots relative to that” value (200 ppm foliar spray) was at most 30%.

`Cc1cc(-c2ncccn2)c(C)cc1OCc1c(C)cccc1-n1nnn(C)c1=O` [Present Compound 203] was tested, and the “area of lesion spots relative to that” value (200 ppm foliar spray) was at most 30% and the “area of lesion spots relative to that” value (500 ppm foliar spray) was at most 30%.

`Cc1cc(-c2ccc(Cl)cn2)ccc1OCc1c(C2CC2)cccc1-n1nnn(C)c1=O` [Present Compound 28] was tested, and the “area of lesion spots relative to that” value (200 ppm foliar spray) was at most 30% and the “area of lesion spots relative to that” value (500 ppm foliar spray) was at most 30%.

`Cc1cccc(-n2nnn(C)c2=O)c1COc1cc(F)c(-c2ccccn2)cc1F` [Present Compound 206] was tested, and the “area of lesion spots relative to that” value (200 ppm foliar spray) was at most 30% and the “area of lesion spots relative to that” value (500 ppm foliar spray) was at most 30%.

`COc1cccc(-n2nnn(C)c2=O)c1COc1ccc(-c2ncccc2Cl)cc1C` [Present Compound 3] was tested, and the “area of lesion spots relative to that” value (200 ppm foliar spray) was at most 30% and the “area of lesion spots relative to that” value (500 ppm foliar spray) was at most 30%.

In the case of `Cc1cccc(-c2ccc(OCc3c(C)cccc3-n3nnn(C)c3=O)c(C3CC3)c2)n1` [Present Compound 100, 1-{2-[2-cyclopropyl-4-(6-methylpyridin-2-yl)phenoxymethyl]-3-methylphenyl}-4-methyl-1,4-dihydrotetrazol-5-one], the “area of lesion spots relative to that” value (200 ppm foliar spray) is reported as at most 30% and the “area of lesion spots relative to that” value (500 ppm foliar spray) is reported as at most 30%.

With `CCc1cccc(-n2nnn(C)c2=O)c1COc1ccc(-c2ccc(C)nc2)cc1C` [Present Compound 72] the “area of lesion spots relative to that” value (200 ppm foliar spray) was at most 30% and the “area of lesion spots relative to that” value (500 ppm foliar spray) was at most 30%.

For `Cc1cc(-c2ncccc2Cl)c(C)cc1OCc1c(C)cccc1-n1nnn(C)c1=O` [Present Compound 163], the “area of lesion spots relative to that” value (200 ppm foliar spray) was at most 30% and the “area of lesion spots relative to that” value (500 ppm foliar spray) was at most 30%.

`COc1cccc(-n2nnn(C)c2=O)c1COc1ccc(-c2ncccc2C)cc1C` [Present Compound 11] was tested, and the “area of lesion spots relative to that” value (200 ppm foliar spray) was at most 30% and the “area of lesion spots relative to that” value (500 ppm foliar spray) was at most 30%.

For `Cc1nccc(-c2ccc(OCc3c(Cl)cccc3-n3nnn(C)c3=O)c(C)c2)n1` [Present Compound 82], the “area of lesion spots relative to that” value (200 ppm foliar spray) was at most 30% and the “area of lesion spots relative to that” value (500 ppm foliar spray) was at most 30%.

For `CCc1cccc(-n2nnn(C)c2=O)c1COc1ccc(-c2ccccn2)cc1C` [Present Compound 7], the “area of lesion spots relative to that” value (200 ppm foliar spray) was at most 30% and the “area of lesion spots relative to that” value (500 ppm foliar spray) was at most 30%.

In the case of `Cc1cccc(-c2ccc(OCc3c(C)cccc3-n3nnn(C)c3=O)c(C)c2)n1` [Present Compound 48], the “area of lesion spots relative to that” value (200 ppm foliar spray) is reported as at most 30% and the “area of lesion spots relative to that” value (500 ppm foliar spray) is reported as at most 30%.

With `Cc1cc(-c2ncccc2C#N)c(C)cc1OCc1c(C)cccc1-n1nnn(C)c1=O` [Present Compound 161] the “area of lesion spots relative to that” value (200 ppm foliar spray) was at most 30% and the “area of lesion spots relative to that” value (500 ppm foliar spray) was at most 30%.

In the case of `Cc1cc(-c2cncc(Br)c2)c(C)cc1OCc1c(C)cccc1-n1nnn(C)c1=O` [Present Compound 200], the “area of lesion spots relative to that” value (500 ppm foliar spray) is reported as at most 30%.

`Cc1cc(-c2cccc(F)n2)ccc1OCc1c(C)cccc1-n1nnn(C)c1=O` [Present Compound 121] was tested, and the “area of lesion spots relative to that” value (200 ppm foliar spray) was at most 30%.

In the case of `Cc1ccc(-c2ccc(OCc3ccccc3-n3nnn(C)c3=O)c(C)c2)nc1` [Present Compound 32], the “area of lesion spots relative to that” value (200 ppm foliar spray) is reported as at most 30% and the “area of lesion spots relative to that” value (500 ppm foliar spray) is reported as at most 30%.

In the case of `CCOc1ccc(-c2ccc(OCc3c(C)cccc3-n3nnn(C)c3=O)c(C)c2)nn1` [Present Compound 103, 1-{3-methyl-2-[2-methyl-4-(6-ethoxypyridazin-3-yl)-phenoxymethyl]-phenyl}-4-methyl-1,4-dihydrotetrazol-5-one], the “area of lesion spots relative to that” value [1] is reported as at most 30% and the “area of lesion spots relative to that” value (500 ppm foliar spray) is reported as at most 30%.

`Cc1cc(-c2cccc(C#N)n2)c(C)cc1OCc1c(C)cccc1-n1nnn(C)c1=O` [Present Compound 168] was tested, and the “area of lesion spots relative to that” value (200 ppm foliar spray) was at most 30% and the “area of lesion spots relative to that” value (500 ppm foliar spray) was at most 30%.

`Cc1cccc(-c2ccc(OCc3c(C)cccc3-n3nnn(C)c3=O)c(C(F)(F)F)c2)n1` [Present Compound 59] was tested, and the “area of lesion spots relative to that” value (200 ppm foliar spray) was at most 30% and the “area of lesion spots relative to that” value (500 ppm foliar spray) was at most 30%.

In the case of `Cc1cc(-c2ncc(F)cn2)c(C)cc1OCc1c(C)cccc1-n1nnn(C)c1=O` [Present Compound 238], the “area of lesion spots relative to that” value (200 ppm foliar spray) is reported as at most 30% and the “area of lesion spots relative to that” value (500 ppm foliar spray) is reported as at most 30%.

In the case of `Cc1cc(-c2ccc(C#N)cn2)ccc1OCc1c(C)cccc1-n1nnn(C)c1=O` [Present Compound 120], the “area of lesion spots relative to that” value (200 ppm foliar spray) is reported as at most 30% and the “area of lesion spots relative to that” value (500 ppm foliar spray) is reported as at most 30%.

In the case of `Cc1cc(-c2ccncc2)ccc1OCc1c(C)cccc1-n1nnn(C)c1=O` [Present Compound 109], the “area of lesion spots relative to that” value (500 ppm foliar spray) is reported as at most 30%.

In the case of `Cc1ccc(-c2ccc(OCc3c(C)cccc3-n3nnn(C)c3=O)c(C)c2)cn1` [Present Compound 111], the “area of lesion spots relative to that” value (200 ppm foliar spray) is reported as at most 30% and the “area of lesion spots relative to that” value (500 ppm foliar spray) is reported as at most 30%.

In the case of `Cc1cc(-c2cnccc2Cl)ccc1OCc1c(C)cccc1-n1nnn(C)c1=O` [Present Compound 69], the “area of lesion spots relative to that” value (200 ppm foliar spray) is reported as at most 30% and the “area of lesion spots relative to that” value (500 ppm foliar spray) is reported as at most 30%.

With `Cn1nnn(-c2cccc(Cl)c2COc2cc(Cl)c(-c3ccccn3)cc2Cl)c1=O` [Present Compound 212] the “area of lesion spots relative to that” value (200 ppm foliar spray) was at most 30%.

For `Cc1cc(C)nc(-c2cc(C)c(OCc3c(C)cccc3-n3nnn(C)c3=O)cc2C)c1` [Present Compound 205], the “area of lesion spots relative to that” value (200 ppm foliar spray) was at most 30% and the “area of lesion spots relative to that” value (500 ppm foliar spray) was at most 30%.

In the case of `CCc1cccc(-c2ccc(OCc3c(C)cccc3-n3nnn(C)c3=O)c(C)c2)n1` [Present Compound 42], the “area of lesion spots relative to that” value (200 ppm foliar spray) is reported as at most 30% and the “area of lesion spots relative to that” value (500 ppm foliar spray) is reported as at most 30%.

For `Cc1cc(-c2ccc(F)cn2)c(F)cc1OCc1c(C)cccc1-n1nnn(C)c1=O` [Present Compound 195], the “area of lesion spots relative to that” value (200 ppm foliar spray) was at most 30% and the “area of lesion spots relative to that” value (500 ppm foliar spray) was at most 30%.

In the case of `Cc1nccc(-c2ccc(OCc3c(C)cccc3-n3nnn(C)c3=O)c(C)c2)n1` [Present Compound 77], the “area of lesion spots relative to that” value (200 ppm foliar spray) is reported as at most 30% and the “area of lesion spots relative to that” value (500 ppm foliar spray) is reported as at most 30%.

In the case of `COc1cccc(-n2nnn(C)c2=O)c1COc1cc(C)c(-c2ccccn2)cc1C` [Present Compound 221], the “area of lesion spots relative to that” value (200 ppm foliar spray) is reported as at most 30% and the “area of lesion spots relative to that” value (500 ppm foliar spray) is reported as at most 30%.

`Cc1cc(-c2ccccn2)c(Cl)cc1OCc1c(C)cccc1-n1nnn(C)c1=O` [Present Compound 213] was tested, and the “area of lesion spots relative to that” value (200 ppm foliar spray) was at most 30% and the “area of lesion spots relative to that” value (500 ppm foliar spray) was at most 30%.

For `Cc1cc(-c2cccc(Cl)n2)ccc1OCc1ccccc1-n1nnn(C)c1=O` [Present Compound 39], the “area of lesion spots relative to that” value (200 ppm foliar spray) was at most 30% and the “area of lesion spots relative to that” value (500 ppm foliar spray) was at most 30%.

In the case of `CCc1ccnc(-c2ccc(OCc3c(Cl)cccc3-n3nnn(C)c3=O)c(C)c2)n1` [Present Compound 140], the “area of lesion spots relative to that” value (200 ppm foliar spray) is reported as at most 30% and the “area of lesion spots relative to that” value (500 ppm foliar spray) is reported as at most 30%.

For `CCc1cc(-c2cccc(C)n2)ccc1OCc1c(C)cccc1-n1nnn(C)c1=O` [Present Compound 101], the “area of lesion spots relative to that” value (200 ppm foliar spray) was at most 30% and the “area of lesion spots relative to that” value (500 ppm foliar spray) was at most 30%.

With `Cc1ccnc(-c2ccc(OCc3c(C)cccc3-n3nnn(C)c3=O)c(C(F)(F)F)c2)n1` [Present Compound 136] the “area of lesion spots relative to that” value (200 ppm foliar spray) was at most 30% and the “area of lesion spots relative to that” value (500 ppm foliar spray) was at most 30%.

For `CCc1cccc(-n2nnn(C)c2=O)c1COc1ccc(-c2cccc(C)n2)cc1C(F)(F)F` [Present Compound 128], the “area of lesion spots relative to that” value (200 ppm foliar spray) was at most 30% and the “area of lesion spots relative to that” value (500 ppm foliar spray) was at most 30%.

For `Cc1cc(-c2ccccn2)c(Cl)cc1OCc1ccccc1-n1nnn(C)c1=O` [Present Compound 214], the “area of lesion spots relative to that” value (200 ppm foliar spray) was at most 30% and the “area of lesion spots relative to that” value (500 ppm foliar spray) was at most 30%.

`CCCc1cccc(-c2ccc(OCc3c(C)cccc3-n3nnn(C)c3=O)c(C)c2)n1` [Present Compound 126, 1-{3-methyl-2-[2-methyl-4-(6-propylpyridin-3-yl)-phenoxymethyl]-phenyl}-4-methyl-1,4-dihydrotetrazol-5-one] was tested, and the “area of lesion spots relative to that” value [1] was at most 30% and the “area of lesion spots relative to that” value (500 ppm foliar spray) was at most 30%.

In the case of `COc1cccc(-n2nnn(C)c2=O)c1COc1ccc(-c2cc(C)ccn2)cc1C` [Present Compound 25], the “area of lesion spots relative to that” value (200 ppm foliar spray) is reported as at most 30% and the “area of lesion spots relative to that” value (500 ppm foliar spray) is reported as at most 30%.

In the case of `COc1ccc(-c2ccc(OCc3c(C)cccc3-n3nnn(C)c3=O)c(C)c2)nn1` [Present Compound 102, 1-{3-methyl-2-[2-methyl-4-(6-methoxypyridazin-3-yl)-phenoxymethyl]-phenyl}-4-methyl-1,4-dihydrotetrazol-5-one], the “area of lesion spots relative to that” value (200 ppm foliar spray) is reported as at most 30% and the “area of lesion spots relative to that” value (500 ppm foliar spray) is reported as at most 30%.

`Cc1cc(-c2cncc(C3CC3)c2)c(C)cc1OCc1c(C)cccc1-n1nnn(C)c1=O` [Present Compound 248] was tested, and the “area of lesion spots relative to that” value (500 ppm foliar spray) was at most 30%.

`Cc1cc(-c2cccc(C(F)(F)F)n2)ccc1OCc1c(C)cccc1-n1nnn(C)c1=O` [Present Compound 35] was tested, and the “area of lesion spots relative to that” value (200 ppm foliar spray) was at most 30% and the “area of lesion spots relative to that” value (500 ppm foliar spray) was at most 30%.
